{"source": "PubChem BioAssay AID485353", "about": "(National Center for Advancing Translational Sciences (NCATS), 2010)", "note": "Among all 330,000 compounds or so, about 610 (0.18%) were called active. This list was built around the results that the source calls inconclusive (neither active nor inactive); the mix of calls is not that of the screen. The call rests on the fitted dose curve. A potency beside an inconclusive call is a rough fit, not a confirmed value. Potency means the concentration at half of the fitted maximal effect."}
{"experiment": "qHTS of Yeast-based Assay for SARS-CoV PLP; further: nearly all actives have a fitted effect of over 55% in size; on activity, positive = growth rescue: 0% is about no effect", "details": "S. cerevisiae expressing SARS-CoV PLpro; Potency: growth rescue; activity, positive = growth rescue: at 32.9 µM (top of the series)"}
{"smiles": "CCOc1ccc(/C=C2/Sc3ccc(C(=O)NCC4CCCO4)cc3N(C)C2=O)cc1OC", "note": "(stereo unspecified)", "Potency": "inconclusive: 3.98 µM [activator, single point]"}
{"smiles": "COc1cccc(-c2cccc(NC(=O)C3CCN(Cc4cccc(C)n4)CC3)c2)c1", "Potency": "inconclusive: 3.98 µM [activator, single point]"}
{"smiles": "O=C(c1n[nH]c2ccccc12)N1CCN(S(=O)(=O)c2ccc(Cl)cc2)CC1", "activity, positive = growth rescue": "inactive: 2.83%"}
{"smiles": "Cc1nc2ccc(NC(=S)N3CCN(c4ccccn4)CC3)cc2nc1C", "activity, positive = growth rescue": "inactive: -13.5%"}
{"smiles": "FC(F)(F)c1cnc(C(c2ccccc2)c2ncn[nH]2)c(Cl)c1", "note": "(stereo unspecified)", "activity, positive = growth rescue": "inactive: 0.159%"}
{"smiles": "CCOC(=O)C(=Nc1ccc(Cl)cc1)NO", "Potency": "inconclusive: 3.98 µM [activator, single point]"}
{"smiles": "O=C(Cc1ccccc1)Nc1nc(=O)c2ccccc2s1", "Potency": "inconclusive: 4.47 µM [activator, single point]"}
{"smiles": "O=C1c2ccccc2CC1Sc1nnc(-c2ccncc2)o1", "note": "(stereo unspecified)", "activity, positive = growth rescue": "inactive: -11.8%"}
{"smiles": "Cc1ccc(S(=O)(=O)N2CCN(CC(=O)N/N=C/c3ccc(C)o3)CC2)cc1", "Potency": "inconclusive: 11.2 µM [activator, single point]"}
{"smiles": "CCCC(C(=O)O)N1C(=O)/C(=C/c2cccn2C)SC1=S", "note": "(stereo unspecified)", "Potency": "inconclusive: 14.1 µM [activator, single point]"}
{"smiles": "COCCOC(=O)CC1=NC(=O)CS1", "Potency": "inconclusive: 0.355 µM [activator, full curve]"}
{"smiles": "CC(C)COc1ccc(C2NC(=O)NC2=O)cc1", "note": "(stereo unspecified)", "Potency": "inconclusive: 10 µM [activator, single point]"}
{"smiles": "CC(=O)N1CCN(C(=O)c2cc(-c3cccc4ccccc34)nc3ccccc23)CC1", "Potency": "inconclusive: 17.8 µM [activator, single point]"}
{"smiles": "COc1ccc(CCNC(=O)[C@@H]2C[C@H]2c2ccccc2)cc1OC", "Potency": "inconclusive: 22.4 µM [activator, single point]"}
{"smiles": "Cc1ccc(C(=O)N(CCN2CCCCC2)CC2CCCN(C3CCCC3)C2)s1", "note": "(stereo unspecified)", "Potency": "inconclusive: 17.8 µM [activator, single point]"}
{"smiles": "O=C(Cn1cc2c(n1)CCCC2)NC1CCN(Cc2ccccc2)CC1", "Potency": "inconclusive: 20 µM [activator, single point]"}
{"smiles": "COC(=O)c1ccc(-c2ccc(C(c3c(C)[nH][nH]c3=O)c3c(C)[nH][nH]c3=O)o2)cc1", "activity, positive = growth rescue": "inactive: -7.53%"}
{"smiles": "Cc1cc(NC(=O)COC(=O)C2CCN(S(=O)(=O)c3ccccc3)CC2)c([N+](=O)[O-])cc1C", "Potency": "inconclusive: 17.8 µM [activator, single point]"}
{"smiles": "O=C1NC(c2ccc(Cl)cc2)Oc2ccccc21", "note": "(stereo unspecified)", "Potency": "inconclusive: 20 µM [activator, single point]"}
{"smiles": "O=C(CSc1ccc2c(c1)OCCO2)Nc1ccc(Br)cn1", "Potency": "inconclusive: 2.51 µM [activator, single point]"}
{"smiles": "CC1CCCCC1NC(=O)CC1Oc2ccccc2NC1=O", "note": "(stereo unspecified)", "activity, positive = growth rescue": "inactive: -7.44%"}
{"smiles": "CC(C)c1ccc(NC(=S)NN2C(C)CCCC2C)cc1", "note": "(stereo unspecified)", "Potency": "inconclusive: 11.2 µM [activator, partial curve]"}
{"smiles": "O=C(O)c1cccc(NC(=S)N/N=C/c2ccccc2OCc2ccc(Br)cc2)c1", "activity, positive = growth rescue": "inactive: 4.2%"}
{"smiles": "CC(Oc1cc2oc(=O)c3c(c2cc1Cl)CCCC3)C(=O)NCC1CCC(C(=O)O)CC1", "note": "(stereo unspecified)", "Potency": "inconclusive: 3.98 µM [activator, single point]"}
{"smiles": "C#CCSc1nc2[nH]ncc2c(=O)[nH]1", "Potency": "inconclusive: 20 µM [activator, single point]"}
{"smiles": "CN(CC(=O)Nc1cccc(Cl)c1)C1=NS(=O)(=O)c2ccccc21", "Potency": "inconclusive: 3.16 µM [activator, single point]"}
{"smiles": "COC(=O)c1sc(N)c(C(=O)OC)c1CSc1nnnn1C", "activity, positive = growth rescue": "inactive: -0.576%"}
{"smiles": "CCOc1ccccc1NC(=O)c1cnccn1", "Potency": "inconclusive: 3.16 µM [activator, partial curve]"}
{"smiles": "Cc1cc(C)cc(-n2c(C)nc3cc(C(=O)O)ccc32)c1", "activity, positive = growth rescue": "inactive: -1.52%"}
{"smiles": "CC(C)CNC(=S)NC(=O)c1ccc(Cl)cc1Cl", "Potency": "inconclusive: 5.01 µM [activator, full curve, poor fit]"}
{"smiles": "CCCSc1nnc(CNS(=O)(=O)c2ccc(C)cc2)n1C", "Potency": "inconclusive: 3.98 µM [activator, single point]"}
{"smiles": "Cc1c(Cl)c([N+](=O)[O-])nn1Cc1ccc(C(=O)N/N=C\\c2cc(Cl)ccc2O)o1", "Potency": "inconclusive: 2.51 µM [activator, full curve]"}
{"smiles": "O=C(CN1C(=O)c2cccc3cccc1c23)NCC1CCCO1", "note": "(stereo unspecified)", "Potency": "inconclusive: 12.6 µM [activator, single point]"}
{"smiles": "CCOC(=O)N1CCN(C(=O)/C(=C/c2cccs2)NC(=O)c2cccs2)CC1", "activity, positive = growth rescue": "inactive: 0.501%"}
{"smiles": "CC(C)(C)OC(=O)N1CCC(c2c(C(=O)N3CCN(C(=O)c4ccco4)CC3)cnn2-c2ccc(F)cc2F)CC1", "Potency": "inconclusive: 3.16 µM [activator, single point]"}
{"smiles": "Cc1ccc(Nc2ccc(-n3ccnc3)nn2)cc1C", "activity, positive = growth rescue": "inactive: -8.42%"}
{"smiles": "O=C(COC(=O)Cc1cccs1)Nc1cc(S(=O)(=O)N2CCOCC2)ccc1Cl", "activity, positive = growth rescue": "inactive: 8.67%"}
{"smiles": "Cc1ccc(CNC(=O)CCS(=O)(=O)c2ccc3nc(C)sc3c2)cc1", "Potency": "inconclusive: 3.98 µM [activator, single point]"}
{"smiles": "COc1cccc(NC(=O)CN(C)S(=O)(=O)c2ccc3[nH]c(=O)oc3c2)c1", "activity, positive = growth rescue": "inactive: 1.82%"}
{"smiles": "Brc1ccccc1-c1nnc(CSc2nnc3sc4ccccc4n23)o1", "Potency": "inconclusive: 3.98 µM [activator, single point]"}
{"smiles": "CC1CCN(Cc2c(C(=O)N/N=C/c3cc(Br)ccc3O)nnn2-c2nonc2N)CC1", "Potency": "inconclusive: 2.24 µM [activator, full curve]"}
{"smiles": "C/C(=N/NC(=O)CNC(=O)C1COc2ccccc2O1)c1ccc2c(c1)OCCO2", "note": "(stereo unspecified)", "activity, positive = growth rescue": "inactive: -5.25%"}
{"smiles": "N#Cc1ccc(N/N=C/c2cn(-c3ccccc3)nc2-c2ccccc2)c([N+](=O)[O-])c1", "activity, positive = growth rescue": "inactive: -6.29%"}
{"smiles": "CCOc1ccc2nc(/N=C/c3c(C)[nH]n(-c4ccccc4)c3=O)sc2c1", "activity, positive = growth rescue": "inactive: -47.3%"}
{"smiles": "C/C(=N\\NC(=O)c1cc(-c2cccnc2)nc2ccccc12)c1ccc(O)cc1O", "Potency": "inconclusive: 20 µM [activator, single point]"}
{"smiles": "CCCn1nnc(NC(=O)c2ccc(OC)cc2)n1", "Potency": "inconclusive: 3.55 µM [activator, partial curve]"}
{"smiles": "COC(=O)C1CCN(C2=C(NS(=O)(=O)c3ccc(Cl)cc3)C(=O)c3ccccc3C2=O)CC1", "activity, positive = growth rescue": "inactive: -5.21%"}
{"smiles": "COc1ccc(/C=C2\\SC(=S)N(CCC(=O)NC3=NCCS3)C2=O)cc1OC", "activity, positive = growth rescue": "inactive: 2.26%"}
{"smiles": "Cc1cc(C)nc(N2CCCC(C(=O)NCCc3ccc(F)cc3)C2)n1", "note": "(stereo unspecified)", "Potency": "inconclusive: 20 µM [activator, single point]"}
{"smiles": "O=c1[nH]c(/C=C/c2ccc([N+](=O)[O-])cc2)c([N+](=O)[O-])c(=O)[nH]1", "Potency": "inconclusive: 3.55 µM [activator, single point]"}
{"smiles": "COCCNC(=O)C(=O)NCCN1CCOCC1", "Potency": "inconclusive: 20 µM [activator, single point]"}
{"smiles": "O=C(NNS(=O)(=O)c1cccc(Cl)c1Cl)c1cccc(S(=O)(=O)N2CCOCC2)c1", "Potency": "inconclusive: 17.8 µM [activator, single point]"}
{"smiles": "CCCCC1(CC(=O)OC)C(=O)N(c2ccccc2)N(c2ccccc2)C1=O", "activity, positive = growth rescue": "inactive: -1.51%"}
{"smiles": "O=C(CNC(=O)c1ccccc1F)N/N=C\\C=C\\c1ccccc1", "Potency": "inconclusive: 2.51 µM [activator, single point]"}
{"smiles": "Cc1cccc(NC(=S)NC2CCCC2)c1C", "Potency": "inconclusive: 20 µM [activator, single point]"}
{"smiles": "COc1ccc2cc(OCC(=O)NNC(=O)Nc3ccc(OC)c(OC)c3)ccc2c1", "Potency": "inconclusive: 11.2 µM [activator, single point]"}
{"smiles": "CC(C)CC(NS(=O)(=O)c1ccc2c(c1)oc(=O)n2C)C(=O)N1CC=C(c2ccccc2)CC1", "note": "(stereo unspecified)", "Potency": "inconclusive: 20 µM [activator, single point]"}
{"smiles": "CCOc1ccc(OCCC(=O)N(CCCOC)c2c(N)n(Cc3ccccc3)c(=O)[nH]c2=O)cc1", "Potency": "inconclusive: 3.16 µM [activator, single point]"}
{"smiles": "CC(=O)NC(c1ccco1)c1ccc2cccnc2c1O", "note": "(stereo unspecified)", "Potency": "inconclusive: 20 µM [activator, single point]"}
{"smiles": "CCN(CC)C(=O)CN(C#N)c1nc(NC(C)C)nc(NC(C)C)n1", "Potency": "inconclusive: 0.355 µM [activator, partial curve, poor fit]"}
{"smiles": "Cc1sc(N/N=C/C=C/c2ccccc2)nc1-c1ccccc1", "Potency": "active: 12.6 µM"}
{"smiles": "CS(=O)(=O)N1CCC(C(=O)Nc2ccccc2Sc2ccccc2)CC1", "Potency": "inconclusive: 3.16 µM [activator, single point]"}
{"smiles": "CNCc1ccccc1Sc1cccc(O)c1", "activity, positive = growth rescue": "inactive: 4.09%"}
{"smiles": "COC(=O)c1ccccc1NC(=O)CN(C1CCCCC1)S(C)(=O)=O", "Potency": "inconclusive: 20 µM [activator, single point]"}
{"smiles": "CCN(CC)c1ccc(/C=N/N2CC(=O)NC2=S)cc1", "activity, positive = growth rescue": "inactive: 0.441%"}
{"smiles": "O=[N+]([O-])c1cccc(S(=O)(=O)NCCOc2cccc3cccnc23)c1", "Potency": "inconclusive: 10 µM [activator, single point]"}
{"smiles": "Cc1ccccc1NC(=O)C1(C)Cc2ccccc2C(=O)O1", "note": "(stereo unspecified)", "Potency": "inconclusive: 1.78 µM [activator, partial curve, poor fit]"}
{"smiles": "O=C(NNC1=NC2(CCCC2)Cc2ccccc21)c1ccncc1", "activity, positive = growth rescue": "inactive: 1.48%"}
{"smiles": "COc1ccc(O)c(C(=O)CC(=O)c2ccc(F)cc2)c1", "activity, positive = growth rescue": "inactive: -23.8%"}
{"smiles": "CC1CCCC(C)N1CCCNC(=O)C(=O)Nc1ccc2nc3n(c(=O)c2c1)CCCCC3", "note": "(stereo unspecified)", "Potency": "inconclusive: 20 µM [activator, single point]"}
{"smiles": "CN1/C(=C\\C(=O)CSc2cccc[n+]2[O-])C(C)(C)c2ccccc21", "Potency": "inconclusive: 5.62 µM [activator, partial curve]"}
